Reference: article PMC12669278 (2025)

Protein sequences, listed by entry. Tags and fused reporters are not part of them.
UniProt P21796, whole entry: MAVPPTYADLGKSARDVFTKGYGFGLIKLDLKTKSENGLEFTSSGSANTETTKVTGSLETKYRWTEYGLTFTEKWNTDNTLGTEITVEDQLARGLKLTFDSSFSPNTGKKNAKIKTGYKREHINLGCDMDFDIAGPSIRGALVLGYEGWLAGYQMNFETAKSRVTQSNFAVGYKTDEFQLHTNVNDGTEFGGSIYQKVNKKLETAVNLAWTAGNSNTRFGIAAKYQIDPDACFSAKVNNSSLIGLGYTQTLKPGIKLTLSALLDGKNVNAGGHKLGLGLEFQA

Molecular target: purified VDAC1 (voltage-dependent anion channel-1) (UniProt P21796 1-283, fluorescently labeled with the NanoTemper Protein labeling kit BLUE (in the MST only))
Test: MST

Row | Binder | Kd [µM]
1 | LPHAILRLDLAGRDLTDYLMKILTERQIKIWFQNRRMKWKK [actin-1E13-Antp-derived peptide] | 3
2 | IGGSILASLSTFQQMWISKQEYDESRQIKIWFQNRRMKWKK [actin-1F6-Antp peptide] | 7
